Values from PubChem BioAssay AID686937 (Drosophila RNAi Screening Center, 2013)

Screen: 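Genes whose loss weakens secretory pathway function in fly cells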 (primary screen)
Cells: Drosophila S2 cells expressing secreted horseradish peroxidase
Reagent: long dsRNA against Drosophila genes
Time to read-out: about 5.5 days (5 days dsRNA, then 12 h reporter induction)
Challenge: reporter expression induced after 5 days of dsRNA, read 12 h later; inducer not stated
Detection: 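Chemiluminescent measurement of peroxidase in the medium 12 h after reporter induction, following 5 days of dsRNA, given as a z-score per plate; higher means more secretion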
Reading the numbers: z-score: higher = more reporter secreted into medium
The screen tested about 23,000 reagents; shown is a random part of those that have a named target and a result. 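Reduced-secretion tags in replicate 1 do not always agree with the z-scores; no criterion for assigning the tags was given.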 A plus sign joins genes that one reagent is predicted to hit. The record does not give: the amount of reagent.

The opening 3 records, ahead of the listing:
| z-score, replicate 1 | z-score, replicate 2 | z-score, replicate 3 | z-score, replicate 4 | phenotype, replicate 1 | Gene | amplicon |
| --- | --- | --- | --- | --- | --- | --- |
| 0.27 | 0.28 | – | – | – | CG14160 | DRSC10161 |
| 0.23 | 0.32 | – | – | – | alpha-Est10 (alpha-Esterase-10) | DRSC12613 |
| 0.41 | 0.23 | – | – | – | CG42557 + CG42558 | DRSC13963 |

The listing, repeating the preview:
| z-score, replicate 1 | z-score, replicate 2 | z-score, replicate 3 | z-score, replicate 4 | phenotype, replicate 1 | Gene | amplicon |
| --- | --- | --- | --- | --- | --- | --- |
| 0.27 | 0.28 | – | – | – | CG14160 | DRSC10161 |
| 0.23 | 0.32 | – | – | – | alpha-Est10 (alpha-Esterase-10) | DRSC12613 |
| 0.41 | 0.23 | – | – | – | CG42557 + CG42558 | DRSC13963 |
| 0.24 | 0.15 | – | – | – | CG42557 + CG42558 | DRSC16329 |
| -0.34 | -0.17 | – | – | – | Paip1 (Poly(A) binding protein interacting protein 1) | DRSC07302 |
| 0.39 | 0.33 | – | – | – | CheB98a (Chemosensory protein A 98a) | DRSC14882 |
| 0.46 | 0.49 | – | – | – | SdhAL (Succinate dehydrogenase, subunit A (flavoprotein)-like) | DRSC10539 |
| -0.15 | 0.16 | – | – | – | Obp50d (Odorant-binding protein 50d) | DRSC05483 |
| 0.45 | 0.52 | – | – | – | MKP-4 (MAPK Phosphatase 4) | DRSC19567 |
| 0.06 | 0.37 | – | – | – | Blimp-1 | DRSC10496 |
| -0.35 | -0.03 | – | – | – | Socs16D (Suppressor of Cytokine Signaling at 16D) | DRSC20087 |
| 0.37 | 0.44 | – | – | – | CG14830 | DRSC08876 |
| 0.53 | 0.43 | – | – | – | SkpC (SKP1-related C) | DRSC20375 |
| 0.14 | 0.41 | – | – | – | CG11170 | DRSC04090 |
| -0.37 | -1.11 | – | – | – | Hsp70Aa + Hsp70Bb + Hsp70Ba + 3 more | DRSC15380 |
| 0.1 | 0.32 | – | – | – | IFT52 (Intraflagellar transport 52) | DRSC03271 |
| -0.08 | 0.24 | – | – | – | sgll (sugarlethal) | DRSC15442 |
| 0.25 | 0.19 | – | – | – | NC2beta (Negative Cofactor 2beta) | DRSC01895 |
| 0.05 | 0.52 | 0.61 | 0.07 | – | CG3726 | DRSC18320 |
| -0.22 | -0.27 | – | – | – | CG42399 | DRSC00322 |
| 0.17 | -0.2 | – | – | – | CG42399 | DRSC00661 |
| 0.1 | -0.22 | – | – | – | Lsm10 | DRSC06250 |
| 0.06 | 0.02 | – | – | – | CG10553 | DRSC14254 |
| -2 | -4.18 | – | – | reduced secretion | Hsp70Bb + Hsp70Ba + Hsp70Bc + 1 more | DRSC21247 |
| -2.47 | -4.43 | – | – | reduced secretion | Hsp70Bb + Hsp70Ba + Hsp70Bc + 1 more | DRSC21248 |
| -2.95 | -0.37 | – | – | reduced secretion | jvl (javelin-like) | DRSC13053 |
| 0.16 | 0.21 | – | – | – | jvl (javelin-like) | DRSC15495 |
| 0.18 | 0.11 | – | – | – | Muc18B (Mucin 18B) | DRSC20064 |
| -0.14 | -0.15 | – | – | – | Muc18B (Mucin 18B) | DRSC21644 |
| 0.33 | 0.23 | – | – | – | nAChRbeta2 (nicotinic Acetylcholine Receptor beta2) | DRSC17010 |
| 0.34 | 0.35 | – | – | – | CG3280 (retired record) | DRSC10356 |
| 0.1 | 0.33 | – | – | – | c(2)M (crossover suppressor on 2 of Manheim) | DRSC01922 |
| 0.3 | 0.36 | 0.31 | -0.32 | – | alpha-Cat (alpha Catenin) | DRSC11917 |
| 0.19 | -0.46 | – | – | – | CG42724 | DRSC12567 |
| -1.06 | -4.11 | – | – | reduced secretion | CG42724 | DRSC22275 |
| -0.48 | 0.26 | – | – | – | meso18E | DRSC20351 |
| 0.56 | 0.3 | – | – | – | C1GalTA (Core 1 Galactosyltransferase A) | DRSC03246 |
| -1 | -0.52 | – | – | – | Tie (Tie-like receptor tyrosine kinase) | DRSC08104 |
| 0.44 | 0.54 | – | – | – | Tie (Tie-like receptor tyrosine kinase) | DRSC08702 |
| 0.07 | 0.15 | – | – | – | TwdlL (TweedleL) | DRSC16042 |
| 0.32 | 0.12 | – | – | – | Usp10 (Ubiquitin specific protease 10) | DRSC08282 |
| 0.35 | 0.28 | – | – | – | Usp10 (Ubiquitin specific protease 10) | DRSC08373 |
| 1 | 0.97 | – | – | – | Pkn + Tsen15 | DRSC21969 |
| 0.24 | 0.36 | – | – | – | CG13226 | DRSC06346 |
| 0.32 | 0.24 | – | – | – | alpha-Man-IIb (alpha-Mannosidase class II b) | DRSC16898 |
| 0.47 | 0.43 | – | – | – | Alg10 (ALG10 alpha-1,2-glucosyltransferase) | DRSC10892 |
| 0.13 | 0.33 | – | – | – | Cals (Calsyntenin) | DRSC17196 |
| 0.02 | -0.71 | – | – | – | Cals (Calsyntenin) | DRSC21661 |
| 0.34 | 0.08 | – | – | – | CG14142 | DRSC10145 |
| 0.24 | 0.43 | – | – | – | CG6980 | DRSC16162 |
| 0.43 | 0.39 | – | – | – | Ir56b (Ionotropic receptor 56b) | DRSC06543 |
| 0.11 | 0.13 | – | – | – | ND-MWFE (NADH dehydrogenase (ubiquinone) MWFE subunit) | DRSC06364 |
| -0.15 | 0.34 | – | – | – | CG34460 | DRSC06974 |
| 0.33 | 0.24 | 0.31 | 0.32 | – | CG33639 | DRSC19966 |
| 4.05 | 3.3 | – | – | – | CG33639 | DRSC22820 |
| -0.18 | 0.18 | – | – | – | Prx4 (Peroxiredoxin 4) | DRSC08668 |
| 0.15 | 0.07 | – | – | – | Dg (Dystroglycan) | DRSC06718 |
| 0.39 | 0.21 | – | – | – | GMF (Glia maturation factor) | DRSC01928 |
| 0.02 | 0.23 | – | – | – | Ku80 | DRSC02699 |
| 0.44 | 0.18 | – | – | – | CG14130 | DRSC10134 |
| 0.27 | 0.34 | – | – | – | bmm (brummer) | DRSC10502 |
| 0.54 | 0.45 | – | – | – | CG8665 | DRSC03098 |
| 0.33 | -0.2 | – | – | – | CG3907 | DRSC04432 |
| 0.1 | -0.32 | – | – | – | CG12093 | DRSC08252 |
| 0.36 | 0.16 | – | – | – | Hgsnat (Heparan-alpha-glucosaminide N-acetyltransferase) | DRSC18405 |
| 0.44 | 0.09 | – | – | – | GstE2 (Glutathione S transferase E2) | DRSC06672 |
| 0.41 | 0.31 | – | – | – | Col4a1 (Collagen type IV alpha 1) | DRSC03291 |
| 0.13 | 0.53 | – | – | – | CG1951 | DRSC15403 |
| 0.09 | 0.22 | – | – | – | Vps13B (Vacuolar protein sorting 13B) | DRSC15060 |
| 0.12 | -0.15 | – | – | – | CG33725 | DRSC09183 |
| 0.32 | 0.09 | – | – | – | CanB (Calcineurin B) | DRSC18449 |
| 0.23 | 0.13 | 0.29 | 0.41 | – | HP1c (Heterochromatin Protein 1c) | DRSC16166 |
| 0.41 | 0.51 | – | – | – | CG32855 | DRSC13131 |
| 0.36 | 0.57 | – | – | – | CG6753 | DRSC16108 |
| 0.5 | 0.51 | – | – | – | CG1440 | DRSC17915 |
| -0.22 | -0.22 | – | – | – | Dnai2 (dynein, axonemal, intermediate chain 2) | DRSC10575 |
| 0.16 | 0.3 | – | – | – | CG11964 | DRSC14447 |
| 0.35 | 0.22 | – | – | – | CG5111 | DRSC15717 |
| 0.36 | 0.32 | – | – | – | CG14015 | DRSC02346 |
| 0.16 | 0.39 | – | – | – | ERp44 (Endoplasmic reticulum protein 44) | DRSC20215 |
| 0.36 | 0.14 | – | – | – | Naa60 (N(alpha)-acetyltransferase 60) | DRSC10301 |
| 0.05 | 0.13 | – | – | – | pnut (peanut) | DRSC07666 |
